PubChem BioAssay AID182 (DTP/NCI, 2004)
The list does not hold the whole screen: it is rich in T/C values a quarter to a half above the control, in often repeated tests (any T/C) and in doses without a T/C. Further doses and runs are listed elsewhere. T/C: endpoint of the treated group in % of that of the vehicle group. Some doses have a count of surviving animals in place of a T/C: the source holds a T/C of zero for them, seemingly a mark for toxic or unscored doses. Some survivor counts are full or nearly so, which does not show that the dose was tolerated: the source hardly ever lists a survival T/C far under the control, and the zero likely stands for such cases as well. Counts of survivors are from the toxicity check (mostly the fifth day) where no day follows; animals may have died later. Schedule codes are those of the source, taken here to give the interval after Q, in days (D) or hours (H), and the number of doses after X. For survival time, this PubChem deposit counts one and a half times the control or more as active, and values a quarter to a half above the control carry no call in these data; other NCI protocols may use other cut-offs. Starred links: 1 amine or outer side, 2 acyl side, 3 side chain; linkers in the order of their positions; H or OH if unused. Positions of bridges follow the written chain, without caps; N, C: chain ends. Non-standard residues stand in square brackets, D forms with d. Residues, ends and D or L forms follow the SMILES beside them. Chains are numbered I, II in the order given. Actinocin(9to1) = Cc1c2oc3c(C)ccc(C(=O)[*:1])c3nc-2c(C(=O)[*:2])c(N)c1=O; aThr = C[C@H](O)[C@H](N)C(=O)O; NMeV = CN[C@H](C(=O)O)C(C)C; Sar = CNCC(=O)O

System: BDF1 mice, P388/ADR leukemia ip, median survival T/C
Test: NCI In Vivo Anticancer Drug Screen. Data for tumor model P388 Leukemia resistant to Adriamycin; NSC 123127, Developed at Scr 06 and 41 (intraperitoneal) in B6D2F1 (BDF1) mice
Conditions: T/C endpoint: median survival time, higher T/C = longer survival
Method: The antitumor activity of compounds was measured in mice bearing transplantable tumors. Survival or tumor size were measured and the results are expressed as the measurement made in the treated group (T) divided by the measurement made in the vehicle treated control group (C). The tumor model used in this assay is P388 Leukemia resistant to Adriamycin; NSC 123127, Developed at Scr 06 and 41 (intraperitoneal) in B6D2F1 (BDF1) mice

[1] = dose: 13.33 mg/kg/injection, schedule: Q04DX003 (ip), vehicle: water

`CC[C@H]1CN2CCc3cc(OC)c(OC)cc3[C@@H]2C[C@@H]1C[C@H]1NCCc2c1[nH]c1ccc(OC)cc21` was tested, and the survivor count (dose: 50.0 mg/kg/injection, schedule: Q04DX003 (ip), vehicle: acid diluted with saline) was 6 of 8.
In the case of `COc1cccc2c1C(=O)c1c(O)c3c(c(O)c1C2=O)C[C@@](O)(C(C)=O)C[C@@H]3OC1CC(N)C(O)C(C)O1` (some centres undefined), the T/C (dose: 2.88 mg/kg/injection, schedule: Q04DX003 (ip), vehicle: water) is reported as 130 % of control and the survivor count [1] is reported as 8 of 8.
With `CCC1(O)CC2CN(CCc3c([nH]c4ccccc34)C(C(=O)OC)(c3cc4c(cc3OC)N(C)C3C(O)(C(=O)NCCSSCCNC(=O)C5(O)C(O)C6(CC)C=CCN7CCC8(c9cc(C%10(C(=O)OC)CC%11CN(CCc%12c%10[nH]c%10ccccc%12%10)CC(O)(CC)C%11)c(OC)cc9N(C)C58)C76)C(O)C5(CC)C=CCN6CCC43C65)C2)C1` (centres undefined) the T/C (dose: 1200.0 micrograms/kg/injection, schedule: Q04DX003 (ip), vehicle: saline) was 133 % of control.
In the case of `CO[C@H]1C[C@](C)(O)Cc2cc3c(c(O)c21)C(=O)c1c(O)cc2c(c1C3=O)O[C@@H]1O[C@@]2(C)[C@H](O)[C@@H](N(C)C)[C@@H]1O`, the survivor count (dose: 83.3 mg/kg/injection, schedule: Q04DX003 (ip), vehicle: lactate) is reported as 4 of 8.
In the case of `CC1OC(O[C@H]2/C=C/C=C/C=C/C=C/C=C/C=C/C=C/[C@H](C)[C@@H](O)[C@@H](C)[C@H](C)OC(=O)C[C@H](O)C[C@H](O)CC[C@@H](O)[C@H](O)C[C@H](O)C[C@]3(O)C[C@H](O)[C@@H](C(=O)O)[C@H](C2)O3)C(O)C(N)C1O` (some centres undefined), the survivor count (dose: 40.0 mg/kg/injection, schedule: Q04DX003 (ip), vehicle: clinical formulation) is reported as 8 of 8 and the survivor count (dose: 80.0 mg/kg/injection, schedule: Q04DX003 (ip), vehicle: clinical formulation) is reported as 2 of 8.
`CCC1=C(C[C@H]2NCCc3cc(OC)c(OC)cc32)C[C@H]2c3cc(OC)c(OC)cc3CCN2C1` was tested, and the survivor count (dose: 50.0 mg/kg/injection, schedule: Q04DX003 (ip), vehicle: saline) was 8 of 8.
With `Nc1nncs1` the survivor count (dose: 480.0 mg/kg/injection, schedule: Q04DX003 (ip), vehicle: other) was 3 of 8 and the survivor count (dose: 800.0 mg/kg/injection, schedule: Q04DX003 (ip), vehicle: other) was 0 of 8.
For `COc1ccc(CC2C(=O)NC(C)C(=O)N(C)C3Cc4ccc(cc4)Oc4cc(ccc4O)CC(C(=O)NC(C)C(=O)NC(C)C(=O)N2C)N(C)C3=O)cc1` (centres undefined), the survivor count (dose: 20.0 mg/kg/injection, schedule: Q04DX003 (ip), vehicle: other) was 1 of 8.
With `CC[C@]1(O)C[C@H](OC2CC(N(C)C)C(OC3CC(O)C(O)C(C)O3)C(C)O2)c2c(cc3c(c2O)C(=O)c2c(O)ccc(O)c2C3=O)[C@H]1C(=O)OC` (some centres undefined) the survivor count (dose: 16.0 mg/kg/injection, schedule: Q04DX003 (ip), vehicle: other) was 8 of 8.
With `Cc1c2oc3c(C)ccc(C(=O)N[C@@H]4C(=O)N[C@H](C(C)C)C(=O)N5CCC[C@H]5C(=O)N(C)CC(=O)N(C)[C@@H](C(C)C)C(=O)O[C@H]4C)c3nc-2c(C(=O)N[C@@H]2C(=O)N[C@H](C(C)C)C(=O)N3CCC[C@H]3C(=O)N(C)CC(=O)N(C)[C@@H](C(C)C)C(=O)O[C@H]2C)c(N)c1=O` (I: [aThr][dV]P[Sar][NMeV] / II: [aThr][dV]P[Sar][NMeV]; ester I:1-I:C, II:1-II:C; linker I:N-II:N via Actinocin(9to1)) the T/C (dose: 0.11 mg/kg/injection, schedule: Q04DX003 (ip), vehicle: saline) was 126 % of control, the T/C (dose: 0.18 mg/kg/injection, schedule: Q04DX003 (ip), vehicle: saline) was 145 % of control and the survivor count (dose: 0.5 mg/kg/injection, schedule: Q04DX003 (ip), vehicle: saline) was 8 of 8. The T/C (dose: 180.0 micrograms/kg/injection, schedule: Q04DX003 (ip), vehicle: saline + alcohol) was 126 % of control and the survivor count (dose: 500.0 micrograms/kg/injection, schedule: Q04DX003 (ip), vehicle: saline + alcohol) was 7 of 8.
With `N[C@H](C(=O)O)[C@@H]1CC(Cl)=NO1` the T/C (dose: 21.6 mg/kg/injection, schedule: Q04DX003 (ip), vehicle: saline) was 130 % of control, the T/C (dose: 60.0 mg/kg/injection, schedule: Q04DX003 (ip), vehicle: saline) was 147 % of control and the T/C (dose: 100.0 mg/kg/injection, schedule: Q04DX003 (ip), vehicle: saline) was 147 % of control.
`COc1cc(O)c2c(c1)C(=O)c1cc3c(c(O)c1C2=O)C(OC1OC(C)C(O)C(O)C1OC)C(OC)C(C)(O)C3=O` (centres undefined) was tested, and the survivor count (dose: 300.0 mg/kg/injection, schedule: Q04DX003 (ip), vehicle: Klucel (hydroxypropylcellulose) (HPC)) was 7 of 8 and the survivor count (dose: 500.0 mg/kg/injection, schedule: Q04DX003 (ip), vehicle: Klucel (hydroxypropylcellulose) (HPC)) was 8 of 8.
For `CC[C@]1(O)C[C@H]2CN(CCc3c([nH]c4ccccc34)[C@@](C(=O)OC)(c3cc4c(cc3OC)N(C=O)[C@H]3[C@@](O)(C(=O)OC)[C@H](OC(C)=O)[C@]5(CC)C=CCN6CC[C@]43[C@@H]65)C2)C1`, the T/C (dose: 1.08 mg/kg/injection, schedule: Q04DX003 (ip), vehicle: saline) was 132 % of control, the survivor count (dose: 2.0 mg/kg/injection, schedule: Q04DX003 (ip), vehicle: saline) was 8 of 8 and the survivor count (dose: 2000.0 micrograms/kg/injection, schedule: Q04DX003 (ip), vehicle: saline) was 8 of 8.
`C[n+]1ccc(Nc2ccc(NC(=O)c3ccc(Nc4cc[n+](C)c5ccc(N)cc45)cc3)cc2)cc1` was tested, and the T/C (dose: 4.32 mg/kg/injection, schedule: Q01DX009 (ip), vehicle: water) was 141 % of control, the survivor count (dose: 12.0 mg/kg/injection, schedule: Q01DX009 (ip), vehicle: water) was 3 of 8 and the survivor count (dose: 20.0 mg/kg/injection, schedule: Q01DX009 (ip), vehicle: water) was 2 of 8.
`COC(=O)C[C@](O)(CCCC(C)(C)O)C(=O)O[C@@H]1C(OC)=C[C@]23CCCN2CCc2cc4c(cc2[C@H]13)OCO4` was tested, and the survivor count (dose: 3.33 mg/kg/injection, schedule: Q04DX003 (ip), vehicle: acid diluted with saline) was 8 of 8.
With `S=c1nc[nH]c2nc[nH]c12` the survivor count (dose: 120.0 mg/kg/injection, schedule: Q01DX009 (ip), vehicle: alkali diluted with saline) was 8 of 8 and the survivor count (dose: 200.0 mg/kg/injection, schedule: Q01DX009 (ip), vehicle: alkali diluted with saline) was 6 of 8.
With `Cc1c2ccncc2c(C)c2c1[nH]c1ccccc12` the survivor count (dose: 60.0 mg/kg/injection, schedule: Q04DX003 (ip), vehicle: water) was 8 of 8 and the survivor count (dose: 100.0 mg/kg/injection, schedule: Q04DX003 (ip), vehicle: water) was 8 of 8.
For `Cc1c(N)nc([C@H](CC(N)=O)NC[C@H](N)C(N)=O)nc1C(=O)N[C@H](C(=O)N[C@H](C)[C@@H](O)[C@H](C)C(=O)N[C@H](C(=O)NCCc1nc(-c2nc(C(=O)NCCC[S+](C)C)cs2)cs1)[C@@H](C)O)C(OC1OC(CO)C(O)C(O)C1OC1OC(CO)C(O)C(OC(N)=O)C1O)c1cnc[nH]1` (some centres undefined), the survivor count (dose: 61.7 mg/kg/injection, schedule: Q04DX003 (ip), vehicle: saline) was 8 of 8.
In the case of `CCN(CC)CCNc1ccc(CO)c2sc3ccccc3c(=O)c12`, the survivor count (dose: 80.0 mg/kg/injection, schedule: Q01DX009 (ip), vehicle: water) is reported as 8 of 8.
`O=NN(CCCl)C(=O)NCCCl` was tested, and the survivor count (dose: 60.0 mg/kg/injection, schedule: Q01DX001 (ip), vehicle: saline + alcohol) was 8 of 8.
`CCCCCCCC(=O)OCC(=O)[C@]1(O)Cc2c(O)c3c(c(O)c2[C@@H](OC2CC(N)C(O)C(C)O2)C1)C(=O)c1c(OC)cccc1C3=O` (some centres undefined) was tested, and the T/C (dose: 4.8 mg/kg/injection, schedule: Q04DX003 (ip), vehicle: water) was 127 % of control, the T/C (dose: 8.0 mg/kg/injection, schedule: Q04DX003 (ip), vehicle: water) was 127 % of control and the survivor count [1] was 8 of 8.
`COc1cc2cc3c4cc(OC)c(OC)cc4cc[n+]3c(C)c2cc1OC` (tested in a mixture with another compound) was tested, and the survivor count (dose: 240.0 mg/kg/injection, schedule: Q04DX003 (ip), vehicle: other) was 3 of 8 and the survivor count (dose: 400.0 mg/kg/injection, schedule: Q04DX003 (ip), vehicle: other) was 2 of 8.
For `CCCCC(=O)OCC(=O)[C@]1(O)Cc2c(O)c3c(c(O)c2[C@@H](OC2CC(NC(=O)C(F)(F)F)C(O)C(C)O2)C1)C(=O)c1c(OC)cccc1C3=O` (some centres undefined), the T/C (dose: 36.0 mg/kg/injection, schedule: Q01DX004 (ip), vehicle: saline with Tween-80) was 130 % of control and the survivor count (dose: 60.0 mg/kg/injection, schedule: Q01DX004 (ip), vehicle: saline with Tween-80) was 7 of 8.
With `COc1cccc2c1C(=O)c1c(O)c3c(c(O)c1C2=O)C[C@@](O)(/C(C)=N/NC(=O)c1ccccc1)C[C@@H]3OC1CC(N)C(O)C(C)O1` (some centres undefined) the survivor count (dose: 30.0 mg/kg/injection, schedule: Q04DX003 (ip), vehicle: water) was 5 of 8.
